# In all, about 320,000 compounds went through this assay and about 22,000 (6.9%) were called active. This list was built around the results that the source calls inconclusive (neither active nor inactive); the mix of calls is not that of the screen. Calls come from the whole dose curve; as a rule, active = well fitted inhibition curve with a large enough effect; inconclusive = small, poorly fitted or top-dose-only effect, or another doubt; inactive = no such curve, though single readings can be large or run the other way. A potency beside an inconclusive call is a rough fit, not a confirmed value.
# Experiment: Primary qHTS for delayed death inhibitors of the malarial parasite plastid, 96 hour incubation
# Conditions: P. falciparum luciferase reporter growth; series mostly up to 28.7 µM; activity change, negative = inhibition: at the top concentration
# How it was run: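 96 h incubation, 37 C, 5% CO2, of luciferase-reporter P. falciparum-infected RBCs (2% hematocrit, 0.05% parasitemia final) with test compounds; endpoint luminescence.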
# % is set by controls: 0 for no effect and ±100 for the full control effect; potency is the fitted concentration of half-maximal effect.
SMILES,Potency,"activity change, negative = inhibition"
O=C(NCCc1ccncc1)Nc1cccc(Cl)c1,"inconclusive: 8.28 µM [inhibitor, single point]",
COC(=O)Cn1c(=O)c2c(nc3n2CCCN3CCc2ccccc2)n(C)c1=O,"inconclusive: 5.86 µM [inhibitor, partial curve]",
CC(C)C[C@@H](CN=[N+]=[N-])N1CCN(Cc2ccccc2)CCC1=O,"inconclusive: 3.29 µM [inhibitor, partial curve, poor fit]",
COc1cccc(CN(C)CC(=O)NCc2ccccc2Cl)c1OC,,inactive: -23.3%
CCc1nnc(NC(=O)C2CC(=O)N(CCc3ccccc3)C2)s1 (configuration not stated),"inconclusive: 10.4 µM [inhibitor, single point]",
Cc1cccc(OC(=O)C2C(c3ccccc3)C(C(=O)O)C2c2ccccc2)c1 (configuration not stated),"inconclusive: 11.7 µM [inhibitor, partial curve, poor fit]",
CCC(=O)N1CCc2cc(S(=O)(=O)CCC(=O)Nc3cccc(C)n3)ccc21,"inconclusive: 18.5 µM [inhibitor, single point]",
CCOC(=O)N1CCN(C(=O)CN(C)S(=O)(=O)c2ccc(OC)c(OC)c2)CC1,"inconclusive: 13.1 µM [inhibitor, single point]",
Cc1cc(Nc2ccc(C)c(Cl)c2)nc(N2CCOCC2)n1,"inconclusive: 11.7 µM [inhibitor, single point]",
C/C(COc1ccccc1)=N\NC(=O)c1nnn(-c2nonc2N)c1CSc1ccccc1,,inactive: 1.63%
CCCn1nnc2sc3c(c2c1=O)CCC(C)C3 (configuration not stated),active: 11.7 µM,
CCOc1ccc(N=Nc2c(=O)[nH]n3c(C)cc(C)nc23)cc1,,inactive: -5.05%
CC1Cc2cc(S(=O)(=O)N3CCN(C)CC3)ccc2N1C(=O)C1CC1 (configuration not stated),active: 5.86 µM,
COc1c(O)ccc(C2NC(=O)NC(C)=C2C(=O)Nc2ccccc2C)c1[N+](=O)[O-] (configuration not stated),"inconclusive: 4.15 µM [inhibitor, single point]",
O=C(CSc1ccc(F)cc1)NCC1(N2CCOCC2)CCCCC1,"inconclusive: 10.4 µM [inhibitor, single point]",
OCCN1CCN(CC/C=C2/c3ccccc3Sc3ccc(Cl)cc32)CC1,active: 9.28 µM,
CC(OC(=O)CN1C(=O)c2ccccc2C1=O)C(=O)NC1(C#N)CCCCC1 (configuration not stated),,inactive: 33.2%
Oc1ccc(Br)cc1-c1cc(-c2ccccc2Cl)[nH]n1,active: 4.15 µM,
CCCCN(C(=O)c1ccc(Cl)c(S(=O)(=O)N2CCOCC2)c1)c1c(N)n(CCC)c(=O)[nH]c1=O,,inactive: -13.5%
COc1ccc(CCn2c(=O)c3cccnc3n(Cc3cccc([N+](=O)[O-])c3)c2=O)cc1OC,"inconclusive: 18.5 µM [inhibitor, single point]",
Cc1cc(C)c(C)c(OCC(=O)O/N=C(\N)c2ccccn2)c1,"inconclusive: 20.8 µM [inhibitor, partial curve, poor fit]",

SMILES,Potency,"activity change, negative = inhibition"
Cc1nc(CC(=O)N2CCN(c3cccc(C)c3C)CC2)cs1,"inconclusive: 11.7 µM [inhibitor, single point]",
Cc1ccccc1C(=O)N1CCC(C(=O)Nc2sccc2C(N)=O)CC1,"inconclusive: 11.7 µM [inhibitor, single point]",
CNC(=O)CO/N=C/c1ccc(N(C)C)cc1,,inactive: 77.2%
c1ccc(Cc2nnc3sc(C4COc5ccccc5O4)nn23)cc1 (configuration not stated),"inconclusive: 0.104 µM [inhibitor, full curve, poor fit]",
COc1ccc(CCNC(=O)C2CCN(S(=O)(=O)c3ccc(-n4cnnn4)cc3)CC2)cc1OC,"inconclusive: 11.7 µM [inhibitor, single point]",
COc1cccc(CNC(=O)CCS(=O)(=O)c2ccc3c(c2)NC(=O)CS3)c1,"inconclusive: 10.4 µM [inhibitor, single point]",
O=C(c1cccs1)N1CCCC(c2nc3c(nnn3Cc3cccc(Cl)c3)c(=O)[nH]2)C1 (configuration not stated),,inactive: 9.38%
COc1ccccc1C(=O)Nc1ccc2c(c1)C(=O)NC2=O,"inconclusive: 2.33 µM [inhibitor, single point]",
CC(C)(C)OC(=O)N[C@@H](Cc1ccccc1)c1nnc(S(=O)(=O)Cc2cccc(F)c2)o1,"inconclusive: 11.7 µM [inhibitor, single point]",
COc1ccc(NC(=O)CSc2nc(C)cc(C)n2)c([N+](=O)[O-])c1,,inactive: 2.33%
CN(CCc1ccccn1)C(=O)CCC1CCCN(Cc2ccccc2OC(F)F)C1 (configuration not stated),"inconclusive: 13.1 µM [inhibitor, single point]",
O=S(=O)(Nc1ccccc1N1CCCCC1)c1ccccc1,"inconclusive: 9.28 µM [inhibitor, single point]",
CC(C)CN1C(=O)c2ccc(C(=O)Nc3c[nH]c(=O)[nH]c3=O)cc2C1=O,"inconclusive: 18.5 µM [inhibitor, single point]",
CCC(C)(C)NC(=O)CN(Cc1ccc(OC)cc1)C(=O)CCC(=O)Nc1nccs1,,inactive: -3.01%
COc1ccc(C)cc1NC(=O)C(=O)NCc1ccncc1,"inconclusive: 2.62 µM [inhibitor, single point]",
FC(F)(F)c1ccc(Cl)c(-n2c(Cc3cccs3)n[nH]c2=S)c1,"inconclusive: 4.15 µM [inhibitor, partial curve, poor fit]",
CCN(c1c(C)n(C)n(-c2ccccc2)c1=O)S(C)(=O)=O,"inconclusive: 0.262 µM [inhibitor, partial curve, poor fit]",
Cc1ccc(S(=O)(=O)N2CCOCC2)cc1C(=O)N(Cc1nnc(-c2ccccc2Cl)o1)C1CC1,"inconclusive: 10.4 µM [inhibitor, partial curve]",
CC(C)[C@H](NC(=O)[C@H](Cc1ccccc1)n1c(=O)[nH]c2ccccc2c1=O)C(=O)N[C@@H](Cc1ccccc1)C(=O)O,"inconclusive: 0.37 µM [inhibitor, full curve, poor fit]",
CC(C)NC(C)Cc1ccc(I)cc1 (configuration not stated),"inconclusive: 19 µM [inhibitor, single point]",
COc1ccccc1C1=NOC(Cn2c(=O)c3c(ncn3C)n(C)c2=O)C1 (configuration not stated),"inconclusive: 8.28 µM [inhibitor, partial curve]",

# Part of the list above, with bars between the fields:
SMILES | Potency | activity change, negative = inhibition
O=C(NCCc1ccncc1)Nc1cccc(Cl)c1 | inconclusive: 8.28 µM [inhibitor, single point] | 
COC(=O)Cn1c(=O)c2c(nc3n2CCCN3CCc2ccccc2)n(C)c1=O | inconclusive: 5.86 µM [inhibitor, partial curve] | 
CC(C)C[C@@H](CN=[N+]=[N-])N1CCN(Cc2ccccc2)CCC1=O | inconclusive: 3.29 µM [inhibitor, partial curve, poor fit] | 
COc1cccc(CN(C)CC(=O)NCc2ccccc2Cl)c1OC |  | inactive: -23.3%
CCc1nnc(NC(=O)C2CC(=O)N(CCc3ccccc3)C2)s1 (configuration not stated) | inconclusive: 10.4 µM [inhibitor, single point] | 
Cc1cccc(OC(=O)C2C(c3ccccc3)C(C(=O)O)C2c2ccccc2)c1 (configuration not stated) | inconclusive: 11.7 µM [inhibitor, partial curve, poor fit] | 
Cc1cc(Nc2ccc(C)c(Cl)c2)nc(N2CCOCC2)n1 | inconclusive: 11.7 µM [inhibitor, single point] | 
C/C(COc1ccccc1)=N\NC(=O)c1nnn(-c2nonc2N)c1CSc1ccccc1 |  | inactive: 1.63%
Oc1ccc(Br)cc1-c1cc(-c2ccccc2Cl)[nH]n1 | active: 4.15 µM | 
CCCCN(C(=O)c1ccc(Cl)c(S(=O)(=O)N2CCOCC2)c1)c1c(N)n(CCC)c(=O)[nH]c1=O |  | inactive: -13.5%
Cc1nc(CC(=O)N2CCN(c3cccc(C)c3C)CC2)cs1 | inconclusive: 11.7 µM [inhibitor, single point] | 
COc1ccc(C)cc1NC(=O)C(=O)NCc1ccncc1 | inconclusive: 2.62 µM [inhibitor, single point] | 

# — PubChem BioAssay AID504834 (National Center for Advancing Translational Sciences (NCATS), 2011)
